The source of these data is article PMC4924727.

This assay has as its target T1, endogenous USP11 (MDCK cells) (canine (endogenous in MDCK)) (UniProt Q01988).
T1 sequence: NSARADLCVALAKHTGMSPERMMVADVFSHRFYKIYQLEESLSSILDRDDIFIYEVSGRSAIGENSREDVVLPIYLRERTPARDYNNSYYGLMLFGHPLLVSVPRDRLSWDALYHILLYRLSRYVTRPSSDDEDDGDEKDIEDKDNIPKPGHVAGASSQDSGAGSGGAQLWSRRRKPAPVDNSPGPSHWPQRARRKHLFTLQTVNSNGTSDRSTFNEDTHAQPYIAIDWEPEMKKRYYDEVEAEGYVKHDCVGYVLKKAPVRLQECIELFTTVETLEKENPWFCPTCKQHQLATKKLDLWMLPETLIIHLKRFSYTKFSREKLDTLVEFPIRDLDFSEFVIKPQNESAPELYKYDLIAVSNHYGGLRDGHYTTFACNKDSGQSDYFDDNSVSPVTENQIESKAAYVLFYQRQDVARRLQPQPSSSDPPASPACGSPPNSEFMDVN
The experiment in a line: co-IP; endogenous proteins of MDCK cell lysates; immunoprecipitation with anti-USP11 or anti-Mgl-1 antibody; also in cells transfected with RanBPM shRNA #1 and #2 (interaction decreased).

Results are given in words; binding and its absence hold for the method and conditions named. In cells and extracts the contact can be indirect. A result given as binding can be weak or reduced; the word gives no strength.

“endogenous Mgl-1 (MDCK cells) (canine (endogenous in MDCK))”: the binding entry is listed as “binds”.
